Laboratory results published in PMC4139204, “Insight into the Architecture of the NuRD Complex” (The Journal of Biological Chemistry, 2014).
No constants are given. Whether binding was seen depends on the method and setting. Binding seen in cells or lysates may run through a third protein. A yes stands for co-enrichment or nearness to the bait. Other partners may have been found. For part of these data: A no says only that the protein was not detected with the bait.

By UniProt entry, the sequences of proteins in these tests, tags left out. Where a name states a change or a piece, a line headed by the entry shows the natural chain unless it says otherwise. Chains listed by the source or under a name are the forms on record and can include a tag or linker.
UniProt Q24572: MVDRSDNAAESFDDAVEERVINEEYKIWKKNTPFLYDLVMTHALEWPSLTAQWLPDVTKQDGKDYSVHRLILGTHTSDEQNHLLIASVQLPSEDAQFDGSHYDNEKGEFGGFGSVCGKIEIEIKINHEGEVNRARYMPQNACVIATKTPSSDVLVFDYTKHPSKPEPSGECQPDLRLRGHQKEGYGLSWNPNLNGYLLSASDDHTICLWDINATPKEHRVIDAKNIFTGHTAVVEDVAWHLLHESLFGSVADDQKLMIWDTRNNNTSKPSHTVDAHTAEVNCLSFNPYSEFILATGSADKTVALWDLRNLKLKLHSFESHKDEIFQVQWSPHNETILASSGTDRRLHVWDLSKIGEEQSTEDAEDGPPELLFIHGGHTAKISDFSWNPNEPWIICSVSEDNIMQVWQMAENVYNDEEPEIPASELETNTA
protein A-tagged Nurf55mut (Q24572, form named): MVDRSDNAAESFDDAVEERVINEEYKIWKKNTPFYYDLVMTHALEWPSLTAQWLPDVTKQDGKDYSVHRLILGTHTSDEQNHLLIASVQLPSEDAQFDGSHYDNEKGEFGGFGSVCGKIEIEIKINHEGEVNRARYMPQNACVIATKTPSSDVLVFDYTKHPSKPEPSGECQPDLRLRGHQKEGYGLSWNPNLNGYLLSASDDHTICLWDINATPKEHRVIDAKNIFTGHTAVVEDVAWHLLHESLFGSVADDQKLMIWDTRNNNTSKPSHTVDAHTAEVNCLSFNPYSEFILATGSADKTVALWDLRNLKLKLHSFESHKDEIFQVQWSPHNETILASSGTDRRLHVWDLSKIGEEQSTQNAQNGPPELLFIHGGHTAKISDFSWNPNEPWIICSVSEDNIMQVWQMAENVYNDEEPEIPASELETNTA

Tests used:
[1] = target: GFP-tagged wild-type Nurf55 (D. melanogaster) (UniProt Q24572); test: affinity purification with mass spectrometry; GFP-tagged Nurf55 or Nurf55mut stably expressed in Dmel-2 cells; purified on beads with a covalently attached anti-GFP nanobody; mass spectrometry, in triplicate
[2] = target: protein A-tagged Nurf55mut (D. melanogaster) (UniProt Q24572); test: affinity purification with mass spectrometry; protein A-tagged Nurf55 or Nurf55mut stably expressed in Dmel-2 cells; purified on IgG beads; interactors identified by mass spectrometry
[3] = target: protein A-tagged wild-type Nurf55 (D. melanogaster) (UniProt Q24572); test: as above

binding [1]: binds
binding [2]: no binding
binding [3]: binds
B1: MTA-like (protein, UniProt Q9VNF6 1-880)
chain: MATNMYRVGDYVYVETTPNSPYLIRRIEELNKNQTGNVEAKVMCFYRRRDLPNPLVQLADKHQLATAEDSPLATKLKKTWLRTPVSEEQAAQAVLDPSIAALDEERTSPTQTSGGGGSATGNSGSNSSGTSNNNSSSTAIGGGAGGSGGAGGDAEKGEALTSKQRYQIKHRELFLSRQVESIPATQIRGKCSVTLLNETESLQSYLNKDDTFFYCLVFDPNQKTLLADKGEIRVGSRYQCDIPAKLKDTATDDRKLEELESLVWTPEHSLTDRKIDQFLVVSRSIGTFARALDCSSSVKQPSLHMSAAAASRDITLFHAMNILHKHEYSIEESMSSLVPSTGPVLCRDEIEDWSASEANLFEEALEKYGKDFNDIRQDFLPWKTLKQIIEYYYMWKTTDRYVQQKRVKAVEAELKLKQVYIPQYNNNGKGNGTSTKAGGGIYNGTTNGSTDLSSNGKPCESCGTTKSSQWNSVSSGHSTSRLCLSCWEYWRRYGSMKSATKGDAGEGDAKKKSSSAASTPTATLAGLATTPTAVVDLNDDEKISDLTNRQLHRCSIVNCGKEFKLKTHLARHYAQAHGIAISSGSPRPIMKTRTAFYLHTNPMTRVARAICRSIVKPKKAARQSAYAINAMLVKQEFTNRISGKSQAEIKKLLLLKPKDRGSVTKIANRLGAPGSGPHEWLVLTPKDKMPLPAVVSFPKPPKAPDGSLVYDRVPNKSPDVVAVPADKELTIIPTQATSTIRKRAHEDQQLNGTEVTIVPSGPPAKRPNKDPMPSHCPSPEQFAAMMAASGQPLSRHHLNGKQKIAQMARGGNGRKQVISWMDAPDDVYFRANDTHKKTRKILSAVDLRRAARKPWRTLPIKPAAPEPSSRPIESQIVILD
